PubChem BioAssay AID1259314 | Drosophila RNAi Screening Center | 2017

- Aim: 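Transmembrane protein genes affecting ATP after manganese overload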 (primary screen)
- Cells: Drosophila S2R+ cells
- Reagent: long dsRNA against Drosophila genes
- Duration: 5 days (4 days knock-down, then 1 day metal exposure)
- Conditions: manganese chloride added to 15 mM for 24 hours
- Detection: 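Cellular ATP measured by luciferase light, scaled to the plate mean, averaged across replicates and z-scored over plates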
- Reading the numbers: mean ATP z-score: higher = more ATP than the plate average, more viable cells under manganese
- Call rule: 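a mean ATP z-score past 1.5 in either direction is called active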
- Meaning of the calls: active = strong ATP change, up or down; inactive = no strong ATP change
This is one part, drawn at random, of about 3,100 reagents tested. 289 of them (9.3%) were called active. 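Active includes both higher and lower ATP than plate average; check the z-score sign for direction.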 A number with no mark means an inactive call. Not given: the amount of reagent.

The opening 4 entries as a preview:
| gene | DRSC id | mean ATP z-score |
| --- | --- | --- |
| Tsp74F (Tetraspanin 74F) | DRSC10508 | -0.745 |
| CG5535 | DRSC10514 | -0.508 |
| CG5535 | DRSC29215 | 1.48 |
| Best3 (Bestrophin 3) | DRSC09880 | -1.45 |

Results, from the start:
| gene | DRSC id | mean ATP z-score |
| --- | --- | --- |
| Tsp74F (Tetraspanin 74F) | DRSC10508 | -0.745 |
| CG5535 | DRSC10514 | -0.508 |
| CG5535 | DRSC29215 | 1.48 |
| Best3 (Bestrophin 3) | DRSC09880 | -1.45 |
| Best3 (Bestrophin 3) | DRSC39740 | -0.41 |
| Grl40a (Gustatory receptor-like 40a) | DRSC03677 | 0.938 |
| Grl40a (Gustatory receptor-like 40a) | DRSC39639 | -0.75 |
| Sb (Stubble) | DRSC16851 | 0.328 |
| Sb (Stubble) | DRSC29250 | 0.0603 |
| Ir76a (Ionotropic receptor 76a) | DRSC10987 | -0.269 |
| CG14691 | DRSC14914 | -0.42 |
| CG14691 | DRSC27957 | 0.787 |
| PGRP-SC1b (Peptidoglycan recognition protein SC1b) | DRSC07215 | 0.243 |
| CG4168 | DRSC01447 | 1.14 |
| CG4168 | DRSC01933 | 0.287 |
| CG4168 | DRSC22789 | 0.393 |
| Or42a (Odorant receptor 42a) | DRSC04912 | -0.261 |
| CCHa2-R (CCHamide-2 receptor) | DRSC04870 | 0.692 |
| CCHa2-R (CCHamide-2 receptor) | DRSC04871 | 0.102 |
| CG12974 | DRSC11684 | -1.11 |
| CG12974 | DRSC39561 | 0.562 |
| gb (genderblind) | DRSC15961 | -0.113 |
| gb (genderblind) | DRSC24834 | 0.532 |
| CG4907 | DRSC15673 | 0.167 |
| CG4907 | DRSC39746 | -0.364 |
| Gr28b (Gustatory receptor 28b) | DRSC02291 | 0.0737 |
| Gr28b (Gustatory receptor 28b) | DRSC02292 | -1.05 |
| Gr28b (Gustatory receptor 28b) | DRSC29459 | 0.478 |
| Kua | DRSC02100 | 0.0229 |
| pcx (pecanex) | DRSC18188 | 0.214 |
| pcx (pecanex) | DRSC18189 | 0.622 |
| kumpel (kin of rumpel) | DRSC14883 | 0.813 |
| kumpel (kin of rumpel) | DRSC16459 | 2.76 (active) |
| kumpel (kin of rumpel) | DRSC16460 | 0.771 |
| kumpel (kin of rumpel) | DRSC16461 | 0.504 |
| kumpel (kin of rumpel) | DRSC16462 | -0.0823 |
| kumpel (kin of rumpel) | DRSC16463 | 0.307 |
| kumpel (kin of rumpel) | DRSC25593 | 2.59 (active) |
| kumpel (kin of rumpel) | DRSC27664 | -0.126 |
| kumpel (kin of rumpel) | DRSC39430 | 0.00373 |
| kumpel (kin of rumpel) | DRSC39876 | 3.42 (active) |
| ZnT77C (Zinc transporter 77C) | DRSC11766 | -1.11 |
| ZnT77C (Zinc transporter 77C) | DRSC11767 | 0.35 |
| GC (gamma-glutamyl carboxylase) | DRSC08396 | 0.675 |
| GC (gamma-glutamyl carboxylase) | DRSC27222 | -0.64 |
| Task6 (TWIK-related acid-sensitive K[+] channel 6) | DRSC16530 | 0.241 |
| Task6 (TWIK-related acid-sensitive K[+] channel 6) | DRSC39545 | 1.7 (active) |
| lz (lozenge) | DRSC25157 | 2.1 (active) |
| lz (lozenge) | DRSC37587 | -0.169 |
| AkhR (Adipokinetic hormone receptor) | DRSC03329 | -0.768 |
| AkhR (Adipokinetic hormone receptor) | DRSC28694 | 0.709 |
| CG1265 | DRSC08288 | -0.475 |
| CG1265 | DRSC39523 | 0.225 |
| TyrRII (Tyramine receptor II) | DRSC25254 | -0.796 |
| CR7448 (pseudo) | DRSC11828 | 2.4 (active) |
| CR7448 (pseudo) | DRSC22485 | -0.433 |
| alphaKap4 (alpha Karyopherin-4) | DRSC09823 | -0.453 |
| alphaKap4 (alpha Karyopherin-4) | DRSC39588 | -0.191 |
| Or67d (Odorant receptor 67d) | DRSC10158 | -0.455 |
| Or67d (Odorant receptor 67d) | DRSC39518 | 0.447 |
| CG32079 | DRSC22636 | -0.018 |
| CG32079 | DRSC39426 | -0.0917 |
| CG14744 | DRSC06480 | -0.417 |
| babo (baboon) | DRSC07581 | 0.994 |
| babo (baboon) | DRSC36676 | -0.548 |
| babo (baboon) | DRSC36677 | 0.432 |
| Gr22b (Gustatory receptor 22b) | DRSC20911 | 0.291 |
| CG7227 | DRSC03032 | 1.42 |
| CG7227 | DRSC39466 | 0.957 |
| kkv (krotzkopf verkehrt) | DRSC12315 | -0.511 |
| hid (head involution defective) | DRSC25461 | 0.586 |
| hid (head involution defective) | DRSC39717 | -0.571 |
| Alg14 (ALG14, UDP-N-acetylglucosaminyltransferase subunit) | DRSC19983 | -0.64 |
| CG8860 | DRSC07291 | -0.213 |
| CG8860 | DRSC25286 | 2.66 (active) |
